Measurements: article doi:10.1101/866137
Results are given in words; binding and its absence hold for the method and conditions named.

Columns and labels:
[1] = molecular target: T1, Plasmodium falciparum Hsp70-Hsp90 organizing protein (PfHop) (Plasmodium falciparum), Q8ILC1; assay: SEC; settings: remark: other sources report otherwise
T1 chain: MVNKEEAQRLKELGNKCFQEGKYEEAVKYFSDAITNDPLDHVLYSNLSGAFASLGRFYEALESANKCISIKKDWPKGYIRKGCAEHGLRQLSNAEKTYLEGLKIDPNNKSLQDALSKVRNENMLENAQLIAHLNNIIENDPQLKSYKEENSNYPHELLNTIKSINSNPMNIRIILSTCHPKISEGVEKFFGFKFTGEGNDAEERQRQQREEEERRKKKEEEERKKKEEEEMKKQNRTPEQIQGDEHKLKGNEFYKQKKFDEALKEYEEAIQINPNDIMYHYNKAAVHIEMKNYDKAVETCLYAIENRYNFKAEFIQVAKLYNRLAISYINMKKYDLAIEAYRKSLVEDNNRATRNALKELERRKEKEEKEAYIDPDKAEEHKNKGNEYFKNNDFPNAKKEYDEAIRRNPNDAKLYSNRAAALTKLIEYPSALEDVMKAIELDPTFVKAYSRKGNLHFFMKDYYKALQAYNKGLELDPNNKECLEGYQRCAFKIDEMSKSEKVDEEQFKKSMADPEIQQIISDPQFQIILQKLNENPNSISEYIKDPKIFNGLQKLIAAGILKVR

[2] = molecular target: T1, Plasmodium falciparum Hsp70-Hsp90 …; assay: SEC-MALS; settings: remark: other sources report otherwise

B1: Plasmodium falciparum Hsp70-Hsp90 organizing protein (PfHop), Q8ILC1 1-564 (protein)
chain: MVNKEEAQRLKELGNKCFQEGKYEEAVKYFSDAITNDPLDHVLYSNLSGAFASLGRFYEALESANKCISIKKDWPKGYIRKGCAEHGLRQLSNAEKTYLEGLKIDPNNKSLQDALSKVRNENMLENAQLIAHLNNIIENDPQLKSYKEENSNYPHELLNTIKSINSNPMNIRIILSTCHPKISEGVEKFFGFKFTGEGNDAEERQRQQREEEERRKKKEEEERKKKEEEEMKKQNRTPEQIQGDEHKLKGNEFYKQKKFDEALKEYEEAIQINPNDIMYHYNKAAVHIEMKNYDKAVETCLYAIENRYNFKAEFIQVAKLYNRLAISYINMKKYDLAIEAYRKSLVEDNNRATRNALKELERRKEKEEKEAYIDPDKAEEHKNKGNEYFKNNDFPNAKKEYDEAIRRNPNDAKLYSNRAAALTKLIEYPSALEDVMKAIELDPTFVKAYSRKGNLHFFMKDYYKALQAYNKGLELDPNNKECLEGYQRCAFKIDEMSKSEKVDEEQFKKSMADPEIQQIISDPQFQIILQKLNENPNSISEYIKDPKIFNGLQKLIAAGILKVR
binding [1]: no binding | binding [2]: no binding (tested: 100 µg injected)
